PubChem BioAssay AID602289 (National Center for Advancing Translational Sciences (NCATS), 2012)
Among all 2,400 compounds or so, about 40 (2%) were called active. Inconclusive means that the source gave no clear call. Such entries were picked first, then a sample of the others.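 The calls were made as follows: active = inhibition at or above 60%; inconclusive = inhibition from 0% up to below 60%; inactive = no inhibition observed.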

Assay: qHTS Assay for Small Molecule Inhibitors of Mitochondrial Division or Activators of Mitochondrial Fusion: Hit Validation in Malachite Green Assay;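 as to inhibition: plate controls were DMSO wells with GTPase for no effect and protein-free buffer wells for full effect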
Settings: purified GTPase, malachite green phosphate release, A650; stronger effect = higher value
Source text: The budding yeast S. cerevisiae is a powerful system to study mitochondrial fusion. Unlike other organisms, yeast cells without functional mitochondrial DNA (mtDNA) can be propagated and studied as long as they maintain a mitochondrial compartment and are provided with a fermentable carbon source. When mitochondrial fusion is blocked in yeast, mitochondrial tubules rapidly fragment and division continues unopposed. Under conditions where fusion is compromised in mammalian cells, nearly identical changes in mitochondrial structure have been observed. Thus, these findings indicate that steady state mitochondrial structure in cells is a characteristic and specific indicator of fusion activity. Mounting evidence has pointed to a connection between mitochondrial dynamics and apoptosis in mammalian cells. These studies indicate that in mammalian cells mitochondrial dynamics are more integrated into cellular processes than in yeast cells and have evolved not only to distribute the organelle but also to aid in the regulation of cellular homeostasis. Mitochondrial fusion proteins attenuate apoptosis by inhibiting the release of cytochrome c from mitochondria, in part by controlling cristae structures. Thus, small molecules that inhibit mitochondrial fusion may promote apoptosis and potentially act as novel chemotherapeutics and stimulation of apoptosis has become an attractive target of anti-cancer therapies. To identify inhibitors of mitochondrial division, we exploit the growth phenotypes of mitochondrial fusion-defective mutants. The temperature sensitive fusion alleles, such as fzo1-1 and mgm1-5, cause mitochondrial membranes to fragment in cells under non-permissive conditions and cells lose mtDNA, and are unable to grow in the presence of non-fermentable carbon source glycerol. Inhibiting mitochondrial division rescues growth. The hits were tested by the assay provider in a malachite green assay. NIH Chemical Genomics Center [NCGC] NIH Molecular Libraries Probe Production Centers Network [MLPCN] MLPCN Grant: MH081279 Assay Submitter (PI): Jodi M. Nunnari
Malachite Green Reagent Malachite Green carbinol base- Aldrich 229105 Ammonium molybdate - Sigma A7302 For 100 mL Malachite Green reagent in 1N HCl 16 mL conc. HCL + 32 mL H20 = 48 mL 4N HCl 34 mg malachite green base into 40 mL 1N HCl (10 mL 4N HCl + 30 mL H20) 1 g ammonium molybdate in 15 mL 4N HCl Mix Solutions together. Bring up to […] with H2O. Filter using a 0.2 um tissue culture filter unit (has plastic bottle attached) store at 4 masculine C. (Avoid Glassware/Plastics washed in detergent. Mix solutions in 50 mL conical vials.) For 20 uL reaction volume 1.0 uL Test Drug or DMSO: Added first to each well […]: 25 mM Hepes/Pipes pH 7.0 (H/P) 2.0 uL: 50 mM MgCl2 (final 5mM) 2.32 uL: 1 M NaCl (with contributing protein salt, Final = 150mM) 13.4 uL per reaction. Can be mixed in larger volume (Mini Master Mix) 1.6 uL: Protein 7.5 uM or Protein Freezing Buffer. (Final = 0.6uM) After Protein Added to mini Master Mix, 15ul Total Master Mix added to each well with drug. 4 uL: 500 uM GTP (Final = 100uM), Dilute with 25 mM H/P, store on ice. 20 uL Total Volume Make Master Mix: (Calculate desired reactions and add a few for multi-channel pipetting volume). Multiply the number of desired reactions by 13.4 uL for total Mini Master volume. Multiply the number of desired reactions by 1.6 uL for total Protein volume. Mix, and keep on ice until added to wells. Add 15 uL of Master Mix to each reaction well, incubate with drug for 10 min. For Positive (No Drug) controls add 15 uL Master Mix to wells with only 1 uL DMSO. Make PFB (Protein Freezing Buffer) (no Protein) Master Mix. Multiply the number of desired reactions by 13.4 uL for total Mini Master volume. Multiply the number of desired reactions by 1.6 uL for total PFB volume. Mix, and keep on ice until added to wells Add 10 uL of PFBMaster Mix to each Phosphate Standards well, and 15 uL to each negative control well with DMSO. […]

inhibition, inactive:
O=C(CN1CCN(c2ccccn2)CC1)Nc1ccccc1, CCc1ccccc1NC(=O)/C(C#N)=C/c1ccc(Sc2ccccc2)o1, O=C(Nc1cccc(Br)c1)c1ccccc1-c1ccccc1, COc1cc(/C=C2\SC(N3CCCCC3)=NC2=O)cc(OC)c1OC, Cc1c(/C=N\NC(=O)C2COc3ccc(C(C)(C)C)cc3O2)c2ccccc2n1C (configuration not stated), CCN(Cc1ccccc1)C(=O)c1oc2ccc(S(=O)(=O)N3CCOCC3)cc2c1C, Cc1nc(CS(=O)(=O)c2ccc(Cl)cc2)cc(Sc2ccccc2Cl)n1, COc1cccc(C(Nc2ccccn2)c2c(NC(=O)c3ccco3)sc(C)c2C)c1 (configuration not stated), O=C(CCc1ccc(Oc2cc([N+](=O)[O-])cc([N+](=O)[O-])c2)cc1)Nc1cccc(Cl)c1, O=[N+]([O-])c1ccccc1SN(Cc1ccccc1)c1ccccn1

inhibition, active:
CC(C)(C)c1ccc2c(c1)OC(C(=O)N/N=C\c1ccccn1)CO2 (configuration not stated) 66%, CCOC(=O)c1c(NC(=O)c2ccccc2Cl)sc2c1CCc1ccccc1-2 102%, CCOC(=O)c1sc(NC(=O)C2=COCCO2)c(C#N)c1C 100%, CC(C)c1nnc(NC(=O)C2c3ccccc3Oc3ccccc32)s1 93.8%

inhibition, inconclusive:
CCC1(C)Cc2ccccc2-c2nc(NN)[nH]c(=O)c21 (configuration not stated) 38.4%, Cc1ccc(OCc2nnc(SC3CCc4ccccc4C3=O)n2C)cc1 (configuration not stated) 20.5%, O/N=C/c1ccc(OCc2ccccc2F)c(Cl)c1 11.1%, Cc1ccc(C(c2cc(Cl)c3cccnc3c2O)N2CCN(C)CC2)cc1 (configuration not stated) 31.8%, CCC(CC)c1nnc(NC(=O)C2CCCO2)s1 (configuration not stated) 54.3%, O=C(Cc1ccc(F)cc1)Nc1nnc(-c2ccc(F)cc2)o1 53.5%, NC(=S)Nc1cccc2cn[nH]c12 4.29%, COc1ccc(NS(=O)(=O)c2ccc3oc(SCc4ccc(F)cc4)nc3c2)cc1 47.2%, COc1ccc(CCNC(=O)c2ccc(-c3ccc([N+](=O)[O-])cc3Cl)o2)cc1 59.5%, O=C1c2cccc3c(O)ccc(c23)C(=O)N1Cc1ccccc1 28.8%, Cc1csc(NC(=O)c2sc3nc(-c4cccs4)ccc3c2N)n1 43.5%, CC(=O)Nc1nc(C=C(Cl)Cl)cs1 38.1%, O=C(/C=C/c1ccc(Br)o1)NC(c1ccccc1)c1ccccc1 24.4%, CCOC(=O)c1n[nH]n2c1nc(=S)c1ccccc12 47.5%, O=C(COc1ccc(Cl)cc1)Nc1nnc(-c2ccc3c(c2)CCCC3)o1 51.6%, CN1CCN(C(c2ccc(Br)cc2)c2cc(Cl)c3cccnc3c2O)CC1 (configuration not stated) 34.7%, O=c1cc(NS(=O)(=O)c2ccccc2)nc(SCc2c(Cl)cccc2Cl)[nH]1 48.5%, Cc1c(Cc2ccccc2)sc(/N=C/c2c(O)ccc3ccccc23)c1C(N)=O 39.6%, Cc1ccc(CNc2ccc3c(c2)ncn3C(C)(C)C)cc1 15%, CCOC(=O)c1c(NC(C)=O)sc2c(O)c(Br)cc(Br)c12 21.5%, COc1cccc(-c2nnc(NC(=O)c3ccc(Cl)s3)o2)c1 45.8%, CC(C)c1ccc(/C=C/C(=O)Nc2nn[nH]n2)cc1 48.3%, CN1CCN(C(c2ccc(Cl)cc2)c2cc(Cl)c3cccnc3c2O)CC1 (configuration not stated) 28.2%
